Taken from: PubChem BioAssay AID686937 (Drosophila RNAi Screening Center, 2013)
The screen tested about 23,000 reagents; this is an unselected part of those that have a named target and a result. 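Reduced-secretion tags in replicate 1 do not always agree with the z-scores; no criterion for assigning the tags was given.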 Names joined by + are all predicted targets of the reagent. Not all columns of the deposit are shown. Not stated in the record: the amount of reagent.

- Test: 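Genes whose loss weakens secretory pathway function in fly cells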 (primary screen)
- System: Drosophila S2 cells expressing secreted horseradish peroxidase
- Knock-down reagent: long dsRNA against Drosophila genes
- Timing: about 5.5 days (5 days dsRNA, then 12 h reporter induction)
- Challenge: reporter expression induced after 5 days of dsRNA, read 12 h later; inducer not stated
- Read-out: 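Chemiluminescent measurement of peroxidase in the medium 12 h after reporter induction, following 5 days of dsRNA, given as a z-score per plate; higher means more secretion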
- Direction: z-score: higher = more reporter secreted into medium

z-score, replicate 1, by gene and reagent
Fhos (GeneID 39004): DRSC08943 0.11; DRSC10545 0.18; DRSC10546 -0.04; DRSC10547 0.42
CG1545 (GeneID 32036): DRSC21532 -0.06
RpL21 (GeneID 35453): DRSC03704 -3.17
Dph1 (GeneID 39317): DRSC09851 -0.5
CG12590 (GeneID 40618): DRSC12216 0.48
CG42324 (GeneID 38430): DRSC08431 0.21; DRSC08432 0.18
CG3823 (GeneID 31573): DRSC18325 0.39
Scsalpha2 (GeneID 42326): DRSC16003 0.24
Ama (GeneID 40831): DRSC12489 0.22
CG3088 (GeneID 39115): DRSC10352 0.31
CG6652 (GeneID 39905): DRSC10686 0.48
CG13058 (GeneID 39806): DRSC09941 0.15
Mec2 (GeneID 32905): DRSC20054 0.14
Rcd1 (GeneID 36560): DRSC07116 -0.05
Mct1 (GeneID 31198): DRSC18681 0.25
Polr3K + Tcs1: DRSC05988 0.49
Arr2 (GeneID 38993): DRSC09670 0.55
CG13917 (GeneID 38186): DRSC08386 0.29
Hsp83 (GeneID 38389): DRSC08664 -0.16
CG32590 (GeneID 318103): DRSC19594 0.33
Obp99d (GeneID 43496): DRSC15046 0.16
aralar1 (GeneID 43616): DRSC13987 0.35; DRSC16901 0.12
CG6414 (GeneID 31352): DRSC18401 0.41
RNF220 (GeneID 42690): DRSC15652 0.08
MESK2 (GeneID 37451): DRSC04258 0.18
Gr43a (GeneID 35655): DRSC06658 0.29
Rab32 (GeneID 35940): DRSC05146 0.1; DRSC07522 0.31
CG12219 (GeneID 31572): DRSC17829 0.37
CR14117 (GeneID 39473): DRSC10121 0.24
CG14377 (GeneID 41649): DRSC14837 0.42
Cpr49Af (GeneID 36352): DRSC07202 0.31
Rtnl1 (GeneID 33721): DRSC00851 0.45; DRSC02684 0.36; DRSC03122 0.38; DRSC21698 -0.29
CG7054 (GeneID 42643): DRSC16185 0.17
Mon1 (GeneID 33689): DRSC00336 -0.02
Bsg (GeneID 318841): DRSC01010 -1.41; DRSC01011 -0.63
CG8818 (GeneID 36375): DRSC07275 0.24
CG11456 (GeneID 40309): DRSC11665 0.33
Rsph4a (GeneID 37831): DRSC04338 0
CG11400 (GeneID 36935): DRSC06070 0.32
icln (GeneID 36997): DRSC07630 0.19
mah (GeneID 42988): DRSC14645 0.34
CG12498 (GeneID 31272): DRSC18635 0.32
ab (GeneID 34560): DRSC01162 -4.53; DRSC03478 -1.14
TfIIA-L (GeneID 43284): DRSC16882 -2.09
Tbp (GeneID 37476): DRSC04662 -5.11

Targets above whose gene name begins with T or t:
z-score, replicate 1, by gene and reagent
TfIIA-L (GeneID 43284): DRSC16882 -2.09
Tbp (GeneID 37476): DRSC04662 -5.11

Further records:
z-score, replicate 1, by gene and reagent
OdsH (GeneID 32758): DRSC20263 0.69
CG9682 (GeneID 43602): DRSC16536 0.22
tgo (GeneID 41084): DRSC17077 0.29
Alg13 (GeneID 43443): DRSC14864 0.18
z (GeneID 31230): DRSC18855 -1.32
CG8187 (GeneID 36720): DRSC07099 0.25
CG31688 + CG31687: DRSC02116 -0.46
RNaseX25 (GeneID 38885): DRSC11259 0.3
RpS15Ab + RpS15Aa: DRSC06129 -2.58; DRSC19831 -1.93
ImpE3 (GeneID 48239): DRSC16716 -1.17
CG31560 (GeneID 40772): DRSC12136 0.53
CG11226 (GeneID 40501): DRSC11639 0.28
Or22c (GeneID 33381): DRSC00766 0.11
CG5819 (GeneID 37547): DRSC04520 0.59
Gpo1 (GeneID 47611): DRSC07128 0.37
CG5111 (GeneID 43085): DRSC15717 0.35
Pburs (GeneID 34845): DRSC02483 0.34
CG34323 (GeneID 5740207): DRSC18916 0.64
Spn28Da (GeneID 34082): DRSC02162 0.38
CG9416 (GeneID 37223): DRSC07339 0.69
CG6040 (GeneID 42292): DRSC15954 0.39
CAH6 (GeneID 43701): DRSC15505 -2.03
CG7546 (GeneID 38844): DRSC08885 0.41; DRSC10871 -0.03; DRSC22148 0.51
CG9302 (GeneID 34750): DRSC03191 0.7
CG43795 (GeneID 5740629): DRSC04192 0.35; DRSC04193 -0.39; DRSC04194 0.03; DRSC04309 0.33; DRSC04310 0.21; DRSC04497 0.26; DRSC22826 0.12
CG4537 (GeneID 34306): DRSC02756 0.46
Elp5 (GeneID 38287): DRSC08547 0.14
Ntf-2r (GeneID 35101): DRSC02019 -1.7
Drsl1 (GeneID 326207): DRSC22490 -0.18
SecS (GeneID 40681): DRSC12222 0.32
Or82a (GeneID 318778): DRSC11996 0.8
CG18493 (GeneID 42319): DRSC15334 0.28
Osi1 (GeneID 40752): DRSC12271 0.45
Kdm4A (GeneID 35744): DRSC06586 0.36
l(3)05822 (GeneID 47260): DRSC16202 0.53
Coa7 (GeneID 3355158): DRSC20967 -0.07
mtm (GeneID 33845): DRSC03576 0.36
Fpgs2 (GeneID 326159): DRSC00600 0.17
CG8236 (GeneID 41047): DRSC16399 0.42
